Data: PMC5891007, “The crystal structure of XdpB, the bacterial old yellow enzyme, in an FMN-free form” (PLoS ONE, 2018)
Construct, isoform or probe ends are uncertain for at least one entry. The comparison behind a weaker result is the experiment's own reference, which may not be listed here.

Test system: XdpR (TetR-like transcriptional regulator), N-terminal His (Agrobacterium bohemicum R89-1)
Experiment: EMSA
Conditions: XdpR concentrated to 0.5 mg/ml, preincubated with 20 uM DNA 1 h at room temperature; 7% blue native PAGE, ethidium bromide stain; protein purified as XdpB; recombinant protein; protein details: N-terminal His (pET28b)

Row | Sequence | binding result
1 | CAATTATGATGATCGTTATGAATATA (double strand) [mutated operator probe, 26 bp (negative control)] | binds more weakly
2 | CAATCATGATGATCGTCATGAATATA (double strand) [xdo operon operator probe, 26 bp] | binds
